Source: patent publication US20250270566
For some of these results: Results from cells or extracts need not show a direct contact. For some of these results: A negative result means that nothing was seen under these conditions. For some of these results: Tags and fusion partners may be left off the protein sequences shown. The exact form of at least one protein or probe is not confirmed.

Key:
GFP = GFP (UniProt P42212); experiment: binding assay; settings: CITED Shui et al. 2012, 295.15 K; purified recombinant protein
[1] = test system: OGT TPR domain (tetratricopeptide repeat domain); experiment: SPR; settings: ABB 5 mM MgCl2, 25 C; purified recombinant protein; protein details: His tag (Ni-NTA purified, pET24a-TPR, E. coli); variant of T1
[2] = biological target: T1, OGT endogenous (Homo sapiens) (UniProt O15294); experiment: pull-down; settings: protein in cells, label: 5'-32P (dot blot)
T1 sequence (looked up, limits assumed): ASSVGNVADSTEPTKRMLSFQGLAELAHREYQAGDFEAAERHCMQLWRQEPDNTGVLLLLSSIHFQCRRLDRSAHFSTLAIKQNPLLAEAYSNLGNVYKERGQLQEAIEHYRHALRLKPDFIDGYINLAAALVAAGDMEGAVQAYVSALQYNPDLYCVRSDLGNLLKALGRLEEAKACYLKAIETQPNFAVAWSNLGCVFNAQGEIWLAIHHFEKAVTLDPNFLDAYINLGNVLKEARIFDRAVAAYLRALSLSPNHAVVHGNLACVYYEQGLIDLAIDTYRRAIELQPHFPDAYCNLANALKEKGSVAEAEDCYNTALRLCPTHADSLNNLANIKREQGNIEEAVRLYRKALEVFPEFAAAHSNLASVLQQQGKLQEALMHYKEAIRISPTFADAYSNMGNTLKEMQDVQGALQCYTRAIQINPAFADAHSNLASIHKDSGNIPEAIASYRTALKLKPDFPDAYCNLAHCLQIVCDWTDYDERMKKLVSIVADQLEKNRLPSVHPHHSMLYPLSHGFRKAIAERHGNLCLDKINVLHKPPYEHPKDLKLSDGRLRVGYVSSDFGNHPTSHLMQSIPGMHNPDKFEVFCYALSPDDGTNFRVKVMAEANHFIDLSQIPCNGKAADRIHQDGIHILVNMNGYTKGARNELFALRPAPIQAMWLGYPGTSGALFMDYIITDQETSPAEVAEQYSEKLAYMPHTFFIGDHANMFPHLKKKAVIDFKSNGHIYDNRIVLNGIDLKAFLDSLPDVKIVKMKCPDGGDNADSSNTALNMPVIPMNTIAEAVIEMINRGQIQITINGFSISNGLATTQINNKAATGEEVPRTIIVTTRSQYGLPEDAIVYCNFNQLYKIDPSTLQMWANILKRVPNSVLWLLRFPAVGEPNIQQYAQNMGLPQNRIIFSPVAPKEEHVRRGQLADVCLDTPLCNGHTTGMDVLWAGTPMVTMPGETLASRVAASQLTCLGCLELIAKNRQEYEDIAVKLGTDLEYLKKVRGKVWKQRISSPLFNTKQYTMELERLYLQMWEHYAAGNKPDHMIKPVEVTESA

Sequence: AGCUUCUGGACUGCGAUGGGAGCACGAAACGUCGUGGCGCAAUUGGGUGGGGAAAGUCCUUAAAAGAGGGCCACCACAGAAGCU [AP3]
- Kd (GFP): 5.1 nM

Sequence: GGGAGAAUCACUUACGGAUCCUCGUUAAGUGGCUCUCAGUCGCCCGUAACUCCGAUGCCGAUGCAGCGGCGACAACUGCACCCAAGGCUCGGAAGCUU [T1 with 3' A28 tail]
- binding result [1]: binds

Sequence: GGGAGAAUCACUUACGGAUCCUCGUUAAGUGGCUCUCAGUCGCCCGUAACUCCGAUGCCGAUGCAGCGGCGACAACUGCACCCAAGGCUCGGAAGCUU [T1]
- binding result ([2]; RNA-IP RT-qPCR from T1-expressing HEK293T, 1 mM Mg2+): binds
- binding result ([2]; RNA-IP without Mg2+, T1 no longer enriched): no binding
